Values quoted from earlier work in article PMC10363480 (Plant Communications, 2023).

System: mitochondria or chloroplast of Chlamydomonas reinhardtii
Conditions: native Chlamydomonas reinhardtii targeting peptide (Type Cr mTP / Cr cTP); localisation as annotated in the data set, not a Venus construct tested here; cited from earlier work

Sequence	Localisation
MAALMQKSALSRPACSTRSSRRAVVVRAAADRKLWA [cTPCHL32]	Chloroplast
MAFALSFSRKALQVSAKATGKKGTGKTAAKQ [cTPCHL26]	Chloroplast
MALAAAAARRAVADGVPGLIYSLRWSRLGLHSTSAAW [mTPCHL12]	Mitochondria
MALCMQTRSVGAVRRTSAVRSAPFRGSRMVVRAT [cTPCHL3]	Chloroplast
MALLAPTTRCLSRPASSSRAAVAVPRLPIRARNVRVF [cTPCHL34]	Chloroplast
MALLMRSQTLRPVSAVASRRVSVVVRAQAGAEKSASNTTGKAKL [cTPCHL2]	Chloroplast
MALMMKSSASLKAVSAGRSRRAVVVRA [cTPCHL18]	Chloroplast
MALRLFGRRAGQLGSSLAQATRAAAVATGELSASCSELFSRQSSVASSSHVREELAAFGVADARFRGLLHMRGLQTSALAM [mTPCHL13]	Mitochondria
MALRNAASFLGKSLAGAAELGFSAAKTAGGEALTNAFVTDGVRH [mTPCHL27]	Mitochondria
MALSMIAQRRAGAFSARQAPRAVRAQ [cTPCHL16]	Chloroplast
MALSMIRKSAAAPVRRAAAAPVVVRGRRVITF [mTPCHL2]	Mitochondria
MALSMRTLSARTAAPRGFSGRRVAAVSNGSRVTM [cTPCHL29]	Chloroplast
MALSSAANVVRSAVLQHLRVTVTSSLQSSSLPTFTNIISRGF [mTPCHL1]	Mitochondria
MALTMKRSGVAARSASSRKSVVTCVA [cTPCHL15]	Chloroplast
MAMLLKSRVSAGVSRPSRATVRVSA [cTPCHL13]	Chloroplast
MAPQTSPMVSAALATMQPKQEQQPAVPALSSALNTGILGKMVAA [mTPCHL32]	Mitochondria
MASGLLRSLGVLSRNCAGSVQEGAVRAF [mTPCHL25]	Mitochondria
MAVAMRSSTGLRATAARRQMPLGLGRVSTVRVCAADTKKAQVISPVNGD [cTPCHL5]	Chloroplast
MHSLSKALLGSGRRGQQNSALLQAVRFY [mTPCHL31]	Mitochondria

Sequence	Localisation
MIAAKSQVALGRRAPVRGQRVVAA [cTPCHL12]	Chloroplast
MLAHTNLTSSGASTVRPAHKRFHGRVSVVPRA [cTPCHL27]	Chloroplast
MLANVVSRKASGLRQTPARATVAVKSVSGRRTTAAEPQTAAPVAAEDVFAYTKNLPGVTAPFEGVF [cTPCHL1]	Chloroplast
MLARAACLLARSAEQAQLPQIMVRTFAAAAA [mTPCHL28]	Mitochondria
MLILGAQEYYALVCNAEWF [cTPCHL9]	Chloroplast
MLKRVGQSLVPFARAGLTQTAESFRG [mTPCHL20]	Mitochondria
MLRGQRSSPVLRAGHRFFASA [mTPCHL8]	Mitochondria
MLRKGAQAVLQAERAGPQQTCAAAQTAFTRQF [mTPCHL17]	Mitochondria
MLRNAARRLMAVGQRGISTSAMTM [mTPCHL3]	Mitochondria
MLSMLGRKGQAMCLRSSRQVPSTRASIARLLAQTPRPNVRAN [mTPCHL9]	Mitochondria
MLSRALLLAGRLAATGQQQAASTSSRAVQPLGSLLQRCNF [mTPCHL22]	Mitochondria
MLSSVRLAALRAGKTNSVFQAVRAFA [mTPCHL19]	Mitochondria
MLSTRTRASAAPASRRSRSTVVSVRA [cTPCHL17]	Chloroplast
MMLKASPAARAAARPAARNVRMM [cTPCHL11]	Chloroplast
MMLTQGRAFAAQRPAVQQRRMAVRANVARVPQVN [cTPCHL31]	Chloroplast
MMSLRAASRKQELPSLLLAQART [mTPCHL24]	Mitochondria
MNRLGALSGLLARAARTCSRRWATAASGVPAELSAVGIVGQEFAAQARSLHTSLTTCQ [mTPCHL21]	Mitochondria
MPRGQGKRLAQLLGAQLKQYAAEVRGISTAGGASRGGARGPASPSSLEQQTRQV [mTPCHL7]	Mitochondria
MPVLAKLLGGASKASSLQQLAGLGQRAALAATQQAGF [mTPCHL14]	Mitochondria
